Data taken from article PMC8479045.
These are yes or no findings as the source states them, for the method shown. For some of these results: In cells and extracts the contact can be indirect. Some binding calls cover weakened binding; strength is not graded here. For some of these results: Sequences can lack the tags named with a protein. One block for each binder: values may come before it.

What was measured:
[1] = biological target: T1, TSEN15–34 heterodimer (full length) (human) (UniProt Q8WW01+Q9BSV6); test: native MS; purified wt TSEN (1.09 mg/ml) and wt TSEN/CLP1 (1.88 mg/ml) from insect cells, exchanged into 200 mM ammonium acetate pH 7.5; Q-ToF modified for high-mass complexes; both purified
T1 sequence 1: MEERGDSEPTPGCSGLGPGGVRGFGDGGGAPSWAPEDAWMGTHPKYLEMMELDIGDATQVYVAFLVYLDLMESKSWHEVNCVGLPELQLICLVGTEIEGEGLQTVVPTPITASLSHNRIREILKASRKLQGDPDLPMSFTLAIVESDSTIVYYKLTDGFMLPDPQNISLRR
T1 sequence 2: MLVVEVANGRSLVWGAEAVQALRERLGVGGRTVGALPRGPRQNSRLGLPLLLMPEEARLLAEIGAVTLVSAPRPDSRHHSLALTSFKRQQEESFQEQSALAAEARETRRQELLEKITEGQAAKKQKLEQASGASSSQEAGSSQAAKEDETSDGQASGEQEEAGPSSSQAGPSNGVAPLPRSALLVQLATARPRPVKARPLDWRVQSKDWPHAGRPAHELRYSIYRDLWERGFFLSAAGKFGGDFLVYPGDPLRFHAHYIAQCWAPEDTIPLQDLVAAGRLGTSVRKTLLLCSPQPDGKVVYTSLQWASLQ

[2] = biological target: T1, TSEN15–34 heterodimer (full length) (human); test: SEC; purified TSEN15–34 and TSEN2–54 heterodimers mixed, then size exclusion chromatography; both purified
[3] = biological target: T2, His6-tagged TSEN15 of the inactive tetrameric TSEN complex (human) (UniProt Q8WW01); test: pull-down; 8 µg purified inactive His-tagged tetrameric TSEN (His6 on TSEN15) captured on protein G agarose with α-His antibody, 50 mM HEPES-NaOH pH 7.4, 400 mM then 100 mM NaCl, 4 °C; TSEN subunits by immunoblot (set-up of the tRNA pull-down); both purified
T2 sequence: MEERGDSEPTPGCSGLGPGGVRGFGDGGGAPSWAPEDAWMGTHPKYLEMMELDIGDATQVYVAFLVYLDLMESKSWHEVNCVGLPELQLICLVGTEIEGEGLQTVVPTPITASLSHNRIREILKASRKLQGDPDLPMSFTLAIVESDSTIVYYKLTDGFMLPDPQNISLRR

[4] = biological target: T3, TSEN15 co-expressed in HEK293 cells (bait of the pull-down of Fig. 4a) (human) (UniProt Q8WW01); test: pull-down; wt and mutant TSEN complexes co-expressed in HEK293 cells; pull-down via TSEN15; immunoblot
T3 sequence: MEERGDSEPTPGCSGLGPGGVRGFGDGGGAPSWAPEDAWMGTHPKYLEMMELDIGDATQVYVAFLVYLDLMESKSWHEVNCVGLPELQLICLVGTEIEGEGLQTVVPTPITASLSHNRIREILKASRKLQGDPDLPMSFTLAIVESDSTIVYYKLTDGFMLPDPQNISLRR

[5] = biological target: T4, endogenous TSEN34 of human fibroblasts (human (endogenous in primary skin fibroblasts)) (UniProt Q9BSV6); test: co-IP; α-TSEN34 peptide antibody cross-linked to agarose beads; total lysates of control, heterozygous and homozygous TSEN54 c.919 G>T fibroblasts, 90 min at 4 °C; washes in 20 mM Tris-HCl pH 7.5, 150 mM NaCl, 10% glycerol, 0.1% NP40, 2 mM MgCl2; immunoblot
T4 sequence: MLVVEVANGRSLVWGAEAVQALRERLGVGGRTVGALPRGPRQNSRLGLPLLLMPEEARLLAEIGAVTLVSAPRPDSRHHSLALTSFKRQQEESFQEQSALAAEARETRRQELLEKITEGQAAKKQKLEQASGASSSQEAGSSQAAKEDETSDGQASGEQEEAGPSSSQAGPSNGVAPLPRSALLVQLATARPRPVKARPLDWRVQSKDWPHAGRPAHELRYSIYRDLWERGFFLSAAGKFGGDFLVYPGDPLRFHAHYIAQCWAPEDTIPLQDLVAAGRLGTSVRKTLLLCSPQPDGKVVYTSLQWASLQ

[6] = biological target: T5, TSEN15 carrying the H116Y mutation, full length (pull-down of Fig. 3e) (human) (UniProt Q8WW01); test: pull-down; full-length TSEN34 with wt TSEN15 or TSEN15 H116Y; input and co-precipitated proteins by SDS-PAGE and immunoblot; bait, host and buffer not described
T5 sequence: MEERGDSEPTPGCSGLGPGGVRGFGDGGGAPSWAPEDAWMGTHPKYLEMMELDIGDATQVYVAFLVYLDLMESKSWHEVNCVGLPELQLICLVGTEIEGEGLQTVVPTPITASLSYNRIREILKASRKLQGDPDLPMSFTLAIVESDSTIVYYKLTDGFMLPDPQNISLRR

[7] = biological target: T6, TSEN15, wild type, full length (pull-down of Fig. 3e) (human) (UniProt Q8WW01); test: as above
T6 sequence: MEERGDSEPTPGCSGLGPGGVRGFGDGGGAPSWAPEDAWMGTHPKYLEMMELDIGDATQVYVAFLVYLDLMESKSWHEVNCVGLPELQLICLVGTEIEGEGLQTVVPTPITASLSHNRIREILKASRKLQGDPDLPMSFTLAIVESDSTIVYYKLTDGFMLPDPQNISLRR

binding [1]: binds | binding [2]: binds
B1: TSEN2–54 heterodimer (complex, UniProt Q8NCE0 1-465; Q7Z6J9 1-526)
chain 1: MAEAVFHAPKRKRRVYETYESPLPIPFGQDHGPLKEFKIFRAEMINNNVIVRNAEDIEQLYGKGYFGKGILSRSRPSFTISDPKLVAKWKDMKTNMPIITSKRYQHSVEWAAELMRRQGQDESTVRRILKDYTKPLEHPPVKRNEEAQVHDKLNSGMVSNMEGTAGGERPSVVNGDSGKSGGVGDPREPLGCLQEGSGCHPTTESFEKSVREDASPLPHVCCCKQDALILQRGLHHEDGSQHIGLLHPGDRGPDHEYVLVEEAECAMSEREAAPNEELVQRNRLICRRNPYRIFEYLQLSLEEAFFLVYALGCLSIYYEKEPLTIVKLWKAFTVVQPTFRTTYMAYHYFRSKGWVPKVGLKYGTDLLLYRKGPPFYHASYSVIIELVDDHFEGSLRRPLSWKSLAALSRVSVNVSKELMLCYLIKPSTMTDKEMESPECMKRIKVQEVILSRWVSSRERSDQDDL
chain 2: MEPEPEPAAVEVPAGRVLSARELFAARSRSQKLPQRSHGPKDFLPDGSAAQAERLRRCREELWQLLAEQRVERLGSLVAAEWRPEEGFVELKSPAGKFWQTMGFSEQGRQRLHPEEALYLLECGSIHLFHQDLPLSIQEAYQLLLTDHTVTFLQYQVFSHLKRLGYVVRRFQPSSVLSPYERQLNLDASVQHLEDGDGKRKRSSSSPRSINKKAKALDNSLQPKSLAASSPPPCSQPSQCPEEKPQESSPMKGPGGPFQLLGSLGPSPGPAREGVGCSWESGRAENGVTGAGKRRWNFEQISFPNMASDSRHTLLRAPAPELLPANVAGRETDAESWCQKLNQRKEKLSRREREHHAEAAQFQEDVNADPEVQRCSSWREYKELLQRRQVQRSQRRAPHLWGQPVTPLLSPGQASSPAVVLQHISVLQTTHLPDGGARLLEKSGGLEIIFDVYQADAVATFRKNNPGKPYARMCISGFDEPVPDLCSLKRLSYQSGDVPLIFALVDHGDISFYSFRDFTLPQDVGH
modifications: high degree of phosphorylation (sites not given)

binding [3]: binds
B2: TSEN2 H377A (subunit of inactive TSEN) (protein, UniProt Q8NCE0 1-465)
chain: MAEAVFHAPKRKRRVYETYESPLPIPFGQDHGPLKEFKIFRAEMINNNVIVRNAEDIEQLYGKGYFGKGILSRSRPSFTISDPKLVAKWKDMKTNMPIITSKRYQHSVEWAAELMRRQGQDESTVRRILKDYTKPLEHPPVKRNEEAQVHDKLNSGMVSNMEGTAGGERPSVVNGDSGKSGGVGDPREPLGCLQEGSGCHPTTESFEKSVREDASPLPHVCCCKQDALILQRGLHHEDGSQHIGLLHPGDRGPDHEYVLVEEAECAMSEREAAPNEELVQRNRLICRRNPYRIFEYLQLSLEEAFFLVYALGCLSIYYEKEPLTIVKLWKAFTVVQPTFRTTYMAYHYFRSKGWVPKVGLKYGTDLLLYRKGPPFYAASYSVIIELVDDHFEGSLRRPLSWKSLAALSRVSVNVSKELMLCYLIKPSTMTDKEMESPECMKRIKVQEVILSRWVSSRERSDQDDL

binding [4]: binds
B3: TSEN54 S93P co-expressed in HEK293 cells (protein, UniProt Q7Z6J9 1-526)
chain: MEPEPEPAAVEVPAGRVLSARELFAARSRSQKLPQRSHGPKDFLPDGSAAQAERLRRCREELWQLLAEQRVERLGSLVAAEWRPEEGFVELKPPAGKFWQTMGFSEQGRQRLHPEEALYLLECGSIHLFHQDLPLSIQEAYQLLLTDHTVTFLQYQVFSHLKRLGYVVRRFQPSSVLSPYERQLNLDASVQHLEDGDGKRKRSSSSPRSINKKAKALDNSLQPKSLAASSPPPCSQPSQCPEEKPQESSPMKGPGGPFQLLGSLGPSPGPAREGVGCSWESGRAENGVTGAGKRRWNFEQISFPNMASDSRHTLLRAPAPELLPANVAGRETDAESWCQKLNQRKEKLSRREREHHAEAAQFQEDVNADPEVQRCSSWREYKELLQRRQVQRSQRRAPHLWGQPVTPLLSPGQASSPAVVLQHISVLQTTHLPDGGARLLEKSGGLEIIFDVYQADAVATFRKNNPGKPYARMCISGFDEPVPDLCSLKRLSYQSGDVPLIFALVDHGDISFYSFRDFTLPQDVGH

binding [5]: binds
B4: endogenous wild-type TSEN54 of control fibroblasts (protein, UniProt Q7Z6J9 1-526)
chain: MEPEPEPAAVEVPAGRVLSARELFAARSRSQKLPQRSHGPKDFLPDGSAAQAERLRRCREELWQLLAEQRVERLGSLVAAEWRPEEGFVELKSPAGKFWQTMGFSEQGRQRLHPEEALYLLECGSIHLFHQDLPLSIQEAYQLLLTDHTVTFLQYQVFSHLKRLGYVVRRFQPSSVLSPYERQLNLDASVQHLEDGDGKRKRSSSSPRSINKKAKALDNSLQPKSLAASSPPPCSQPSQCPEEKPQESSPMKGPGGPFQLLGSLGPSPGPAREGVGCSWESGRAENGVTGAGKRRWNFEQISFPNMASDSRHTLLRAPAPELLPANVAGRETDAESWCQKLNQRKEKLSRREREHHAEAAQFQEDVNADPEVQRCSSWREYKELLQRRQVQRSQRRAPHLWGQPVTPLLSPGQASSPAVVLQHISVLQTTHLPDGGARLLEKSGGLEIIFDVYQADAVATFRKNNPGKPYARMCISGFDEPVPDLCSLKRLSYQSGDVPLIFALVDHGDISFYSFRDFTLPQDVGH

binding [4]: binds
B5: TSEN54 A307S co-expressed in HEK293 cells (protein, UniProt Q7Z6J9 1-526)
chain: MEPEPEPAAVEVPAGRVLSARELFAARSRSQKLPQRSHGPKDFLPDGSAAQAERLRRCREELWQLLAEQRVERLGSLVAAEWRPEEGFVELKSPAGKFWQTMGFSEQGRQRLHPEEALYLLECGSIHLFHQDLPLSIQEAYQLLLTDHTVTFLQYQVFSHLKRLGYVVRRFQPSSVLSPYERQLNLDASVQHLEDGDGKRKRSSSSPRSINKKAKALDNSLQPKSLAASSPPPCSQPSQCPEEKPQESSPMKGPGGPFQLLGSLGPSPGPAREGVGCSWESGRAENGVTGAGKRRWNFEQISFPNMSSDSRHTLLRAPAPELLPANVAGRETDAESWCQKLNQRKEKLSRREREHHAEAAQFQEDVNADPEVQRCSSWREYKELLQRRQVQRSQRRAPHLWGQPVTPLLSPGQASSPAVVLQHISVLQTTHLPDGGARLLEKSGGLEIIFDVYQADAVATFRKNNPGKPYARMCISGFDEPVPDLCSLKRLSYQSGDVPLIFALVDHGDISFYSFRDFTLPQDVGH

binding [5]: binds
B6: endogenous TSEN2 of human fibroblasts (protein, UniProt Q8NCE0 1-465)
chain: MAEAVFHAPKRKRRVYETYESPLPIPFGQDHGPLKEFKIFRAEMINNNVIVRNAEDIEQLYGKGYFGKGILSRSRPSFTISDPKLVAKWKDMKTNMPIITSKRYQHSVEWAAELMRRQGQDESTVRRILKDYTKPLEHPPVKRNEEAQVHDKLNSGMVSNMEGTAGGERPSVVNGDSGKSGGVGDPREPLGCLQEGSGCHPTTESFEKSVREDASPLPHVCCCKQDALILQRGLHHEDGSQHIGLLHPGDRGPDHEYVLVEEAECAMSEREAAPNEELVQRNRLICRRNPYRIFEYLQLSLEEAFFLVYALGCLSIYYEKEPLTIVKLWKAFTVVQPTFRTTYMAYHYFRSKGWVPKVGLKYGTDLLLYRKGPPFYHASYSVIIELVDDHFEGSLRRPLSWKSLAALSRVSVNVSKELMLCYLIKPSTMTDKEMESPECMKRIKVQEVILSRWVSSRERSDQDDL

binding [6]: binds | binding [7]: binds
B7: TSEN34, full length (pull-down of Fig. 3e) (protein, UniProt Q9BSV6 1-310)
chain: MLVVEVANGRSLVWGAEAVQALRERLGVGGRTVGALPRGPRQNSRLGLPLLLMPEEARLLAEIGAVTLVSAPRPDSRHHSLALTSFKRQQEESFQEQSALAAEARETRRQELLEKITEGQAAKKQKLEQASGASSSQEAGSSQAAKEDETSDGQASGEQEEAGPSSSQAGPSNGVAPLPRSALLVQLATARPRPVKARPLDWRVQSKDWPHAGRPAHELRYSIYRDLWERGFFLSAAGKFGGDFLVYPGDPLRFHAHYIAQCWAPEDTIPLQDLVAAGRLGTSVRKTLLLCSPQPDGKVVYTSLQWASLQ

binding [3]: binds
B8: TSEN34 H255A (subunit of inactive TSEN) (protein, UniProt Q9BSV6 1-310)
chain: MLVVEVANGRSLVWGAEAVQALRERLGVGGRTVGALPRGPRQNSRLGLPLLLMPEEARLLAEIGAVTLVSAPRPDSRHHSLALTSFKRQQEESFQEQSALAAEARETRRQELLEKITEGQAAKKQKLEQASGASSSQEAGSSQAAKEDETSDGQASGEQEEAGPSSSQAGPSNGVAPLPRSALLVQLATARPRPVKARPLDWRVQSKDWPHAGRPAHELRYSIYRDLWERGFFLSAAGKFGGDFLVYPGDPLRFAAHYIAQCWAPEDTIPLQDLVAAGRLGTSVRKTLLLCSPQPDGKVVYTSLQWASLQ
